Data on one substance can be found in article PMC2757719.

The chains behind the UniProt entries cited, without tags or fusion partners.
UniProt Q93009: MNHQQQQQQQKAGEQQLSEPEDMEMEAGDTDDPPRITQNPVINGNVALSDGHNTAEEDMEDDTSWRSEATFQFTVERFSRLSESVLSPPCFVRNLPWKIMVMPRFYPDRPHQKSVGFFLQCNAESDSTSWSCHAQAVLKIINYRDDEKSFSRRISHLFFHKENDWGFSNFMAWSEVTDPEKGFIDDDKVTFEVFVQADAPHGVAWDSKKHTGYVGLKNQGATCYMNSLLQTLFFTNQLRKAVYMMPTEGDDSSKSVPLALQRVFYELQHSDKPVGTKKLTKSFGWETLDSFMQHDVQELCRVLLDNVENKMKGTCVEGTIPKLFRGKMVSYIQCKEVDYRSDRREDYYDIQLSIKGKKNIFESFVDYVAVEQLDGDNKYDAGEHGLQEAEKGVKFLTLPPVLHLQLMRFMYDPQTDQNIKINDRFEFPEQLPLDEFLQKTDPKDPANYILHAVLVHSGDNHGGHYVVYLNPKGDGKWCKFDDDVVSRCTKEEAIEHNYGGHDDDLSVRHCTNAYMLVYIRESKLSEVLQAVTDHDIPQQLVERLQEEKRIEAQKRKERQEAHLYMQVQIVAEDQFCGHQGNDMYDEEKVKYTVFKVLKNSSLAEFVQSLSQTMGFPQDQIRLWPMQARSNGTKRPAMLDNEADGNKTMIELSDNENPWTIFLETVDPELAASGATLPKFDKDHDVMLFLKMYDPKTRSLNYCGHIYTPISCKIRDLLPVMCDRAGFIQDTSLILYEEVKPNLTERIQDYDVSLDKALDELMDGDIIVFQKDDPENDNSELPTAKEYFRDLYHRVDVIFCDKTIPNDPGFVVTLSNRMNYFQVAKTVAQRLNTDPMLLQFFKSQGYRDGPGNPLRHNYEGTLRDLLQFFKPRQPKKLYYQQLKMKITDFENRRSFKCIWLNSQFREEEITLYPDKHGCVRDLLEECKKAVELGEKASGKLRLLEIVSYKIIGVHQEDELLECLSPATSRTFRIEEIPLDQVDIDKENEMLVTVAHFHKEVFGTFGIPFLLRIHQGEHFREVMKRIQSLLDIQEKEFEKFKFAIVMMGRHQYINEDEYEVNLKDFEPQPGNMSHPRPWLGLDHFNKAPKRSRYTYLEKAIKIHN
UniProt P49915: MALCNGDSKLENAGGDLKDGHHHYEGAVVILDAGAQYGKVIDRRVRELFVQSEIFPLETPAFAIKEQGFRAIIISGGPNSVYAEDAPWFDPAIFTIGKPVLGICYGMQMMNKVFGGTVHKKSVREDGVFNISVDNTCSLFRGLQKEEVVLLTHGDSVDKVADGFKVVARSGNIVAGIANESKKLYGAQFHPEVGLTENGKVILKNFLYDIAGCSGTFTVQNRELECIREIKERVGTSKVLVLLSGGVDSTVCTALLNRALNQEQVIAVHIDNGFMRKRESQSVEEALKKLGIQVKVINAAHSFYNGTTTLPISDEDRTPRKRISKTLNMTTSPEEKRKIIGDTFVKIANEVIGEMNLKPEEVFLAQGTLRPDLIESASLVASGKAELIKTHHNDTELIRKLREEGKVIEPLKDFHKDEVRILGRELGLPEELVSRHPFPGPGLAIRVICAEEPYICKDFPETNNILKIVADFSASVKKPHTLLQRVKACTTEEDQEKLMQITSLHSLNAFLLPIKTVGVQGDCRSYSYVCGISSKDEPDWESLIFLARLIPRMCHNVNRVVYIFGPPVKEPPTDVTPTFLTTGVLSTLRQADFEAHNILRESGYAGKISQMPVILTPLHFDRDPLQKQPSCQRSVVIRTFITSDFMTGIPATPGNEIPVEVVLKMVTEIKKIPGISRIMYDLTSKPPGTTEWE

These are yes or no findings as the source states them, for the method shown. Binding seen in cells or lysates may run through a third protein. A yes stands for co-enrichment or nearness to the bait. Other partners may have been found.

This assay concerns the target USP7 (ubiquitin specific protease USP7), full length (human) (UniProt Q93009). The assay can be described thus: affinity purification with mass spectrometry; purified USP7 covalently coupled to Affi-Gel 10 at 0, 0.5, 1 or 2 mg per ml resin; HeLa whole cell lysate applied; column buffer 50 mM HEPES pH 7.5, 100 mM NaCl, 1 mM DTT, 0.1 mM EDTA, 10% glycerol; eluted with 1 M NaCl then 1% SDS; silver-stained band identified by MALDI-ToF; only the target purified.

As for “GMP synthetase (GMPS), endogenous in HeLa whole cell lysate (from UniProt P49915 1-693) (enzyme)”, the binding entry is “binds”.
